# Drug screen on melanoma cell lines: cell count

Values as published with doi:10.1371/journal.pone.0140310, rounded.

First drug in all entries: nilotinib, 200 nM, Cc1cn(-c2cc(NC(=O)c3ccc(C)c(Nc4nccc(-c5cccnc5)n4)c3)cc(C(F)(F)F)c2)cn1

Compounds and concentrations:
L-779450: Oc1cc(-c2nc(-c3ccccc3)[nH]c2-c2ccncc2)ccc1Cl at 200 nM
tanespimycin: C=CCNC1=C2C[C@@H](C)C[C@H](OC)[C@H](O)[C@@H](C)/C=C(\C)[C@H](OC(N)=O)[C@@H](OC)/C=C\C=C(/C)C(=O)NC(=CC1=O)C2=O at 2 nM
ABT-263: CC1(C)CCC(c2ccc(Cl)cc2)=C(CN2CCN(c3ccc(C(=O)NS(=O)(=O)c4ccc(N[C@H](CCN5CCOCC5)CSc5ccccc5)c(S(=O)(=O)C(F)(F)F)c4)cc3)CC2)C1 at 400 nM
A-769662: N#Cc1c(O)c2c(-c3ccc(-c4ccccc4O)cc3)csc2[nH]c1=O at 2000 nM
midostaurin: CO[C@@H]1[C@H](N(C)C(=O)c2ccccc2)C[C@H]2O[C@]1(C)n1c3ccccc3c3c4c(c5c6ccccc6n2c5c31)C(=O)NC4 at 80 nM
Src-I1: COc1cc2ncnc(Nc3ccc(Oc4ccccc4)cc3)c2cc1OC at 2000 nM
STA-4783: CN(NC(=O)CC(=O)NN(C)C(=S)c1ccccc1)C(=S)c1ccccc1 at 6 nM
embelin: CCCCCCCCCCCC1=C(O)C(=O)C=C(O)C1=O at 1200 nM
enzastaurin: Cn1cc(C2=C(c3cn(C4CCN(Cc5ccccn5)CC4)c4ccccc34)C(=O)NC2=O)c2ccccc21 at 800 nM
XAV939: Oc1nc(-c2ccc(C(F)(F)F)cc2)nc2c1CSCC2 at 2000 nM
PLX4720: CCCS(=O)(=O)Nc1ccc(F)c(C(=O)c2c[nH]c3ncc(Cl)cc23)c1F at 80 nM
crizotinib: C[C@@H](Oc1cc(-c2cnn(C3CCNCC3)c2)cnc1N)c1c(Cl)ccc(F)c1Cl at 200 nM
GSK0660: COC(=O)c1sccc1S(=O)(=O)Nc1ccc(Nc2ccccc2)cc1OC at 1000 nM
tamatinib: COc1cc(Nc2ncc(F)c(Nc3ccc4c(n3)NC(=O)C(C)(C)O4)n2)cc(OC)c1OC at 400 nM
nilutamide: CC1(C)NC(=O)N(c2ccc([N+](=O)[O-])c(C(F)(F)F)c2)C1=O at 1000 nM
sorafenib: CNC(=O)c1cc(Oc2ccc(NC(=O)Nc3ccc(Cl)c(C(F)(F)F)c3)cc2)ccn1 at 400 nM
OSU-03012: NCC(=O)Nc1ccc(-n2nc(C(F)(F)F)cc2-c2ccc3c(ccc4ccccc43)c2)cc1 at 1000 nM
NVP-TAE684: COc1cc(N2CCC(N3CCN(C)CC3)CC2)ccc1Nc1ncc(Cl)c(Nc2ccccc2S(=O)(=O)C(C)C)n1 at 80 nM

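The test systems are human melanoma cell lines, treated with a pair of drugs for 72 h and then stained and imaged. The read-out is cell count (nuclei) in % of the DMSO control; lower values mean stronger growth inhibition or killing. Every drug was used at one fixed concentration, the lower of two screened (a fifth of the higher). These are primary screening values without error estimates.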
An unselected part of the screen is shown.
A dash means that no value is listed here.

| Second drug | C32 | 501mel | A375 | LOX IMVI | G-361 | COLO 792 | COLO 800 | A2058 | A101D | IST-MEL1 | IPC-298 | COLO 829 | LB2518-MEL | MEL-HO |
|---|---|---|---|---|---|---|---|---|---|---|---|---|---|---|
| PLX4720 | 88.9 | - | 76.2 | 122 | 63.1 | 116 | 87.6 | 90.6 | 84.7 | 89.3 | 95.0 | 87.4 | - | 91.6 |
| midostaurin | 72.9 | - | 96.5 | 112 | 88.7 | 94.9 | 88.2 | 84.0 | 85.6 | 88.8 | 92.7 | 106 | 89.2 | 83.8 |
| embelin | 107 | 90.8 | - | 151 | 94.1 | 111 | 91.5 | 94.9 | 104 | 100 | 102 | 89.3 | 105 | 107 |
| STA-4783 | 86.2 | - | 55.6 | 144 | 79.4 | 95.6 | 54.2 | 79.1 | 80.2 | 83.1 | 105 | 84.0 | 97.6 | 93.3 |
| tanespimycin | 81.8 | - | 82.3 | 120 | 95.0 | 90.7 | 141 | 102 | 96.4 | 89.5 | 94.4 | 102 | 86.2 | 91.4 |
| Src-I1 | 95.4 | 93.3 | - | 111 | 90.1 | 103 | 91.2 | 84.0 | 90.6 | 104 | 98.0 | 118 | 72.3 | 99.5 |
| A-769662 | 100 | 132 | - | 132 | 104 | 110 | 114 | 92.7 | 96.7 | 85.7 | 101 | 110 | 104 | 80.5 |
| NVP-TAE684 | 80.3 | 98.7 | - | 122 | 91.6 | 100 | 53.8 | 82.1 | 100 | 99.5 | 93.5 | 123 | 109 | 101 |
| ABT-263 | 54.0 | - | 68.1 | 53.1 | 79.0 | 61.2 | 44.1 | 85.2 | 52.1 | 67.5 | 88.2 | 130 | 101 | 73.0 |
| sorafenib | 88.6 | - | 89.8 | 71.7 | 90.5 | 119 | 135 | 94.8 | 101 | 104 | 101 | 72.6 | 101 | 95.8 |
| enzastaurin | 100 | - | 104 | 97.0 | 96.4 | 121 | 80.0 | 94.2 | 111 | 101 | 95.3 | 110 | 98.9 | 105 |
| XAV939 | 99.1 | 93.0 | - | 135 | 99.3 | 85.5 | 62.6 | 95.2 | 88.3 | 107 | 96.4 | 113 | 117 | 102 |
| OSU-03012 | 105 | - | 22.2 | - | 88.6 | 88.5 | - | 85.7 | 100 | 88.6 | 90.7 | 73.5 | 96.8 | 100 |
| L-779450 | 88.7 | 69.7 | - | 121 | 92.8 | 118 | 97.9 | 97.4 | 88.6 | 96.0 | 104 | 129 | 93.9 | 108 |
| GSK0660 | 120 | 126 | - | 118 | 101 | 84.8 | 101 | 108 | 94.4 | 98.6 | 102 | 103 | 104 | 92.3 |
| nilutamide | 89.5 | - | 109 | 70.7 | 91.1 | 102 | 74.4 | 81.7 | 88.5 | 101 | 107 | 114 | 98.7 | 98.3 |
| tamatinib | 82.9 | - | 86.5 | 94.1 | 91.1 | 68.1 | 99.6 | 87.3 | 71.0 | 98.7 | 91.9 | 95.4 | 62.8 | 90.2 |
| crizotinib | 121 | - | 151 | 80.1 | 96.5 | 117 | 76.0 | 102 | 111 | 94.1 | 113 | 109 | 104 | 101 |